PMC7665024, “Anti-apoptotic BCL-2 regulation by changes in dynamics of its long unstructured loop” (Communications Biology, 2020)

System: BCL-2
Assay: DEER inter-spin distance distributions of double-spin-labeled BCL-2
Parameters: species or system human
Conditions: spin-label pair 12/92, no ligand, 80 K

Molecule | full-width-at-half-maximum of DEER distance distribution [nm]
WT: TM-truncated wild-type human BCL-2 (BCL-2-ΔTM, residues 1–217, C-terminal His6-tag) | 1.81
EEE (protein, Pacific Blue (maleimide) on the native cysteine 158; left off: His6, C-terminal, state not stated) MAHAGRTGYDNREIVMKYIHYKLSQRGYEWDAGDVGAAPPGAAPAPGIFSSQPGHTPHPAASRDPVAREEPLQTPAAPGAAAGPALEPVPPVVHLTLRQAGDDFSRRYRRDFAEMSSQLHLTPFTARGRFATVVEELFRDGVNWGRIVAFFEFGGVMCVESVNREMSPLVDNIALWMTEYLNRHLHTWIQDNGGWDAFVELYGPSMRPLFDFSWLSL | 0.46
